Test [1] has as its target T1, TAPF-Nop53 (S. cerevisiae) (UniProt Q12080).
T1 sequence: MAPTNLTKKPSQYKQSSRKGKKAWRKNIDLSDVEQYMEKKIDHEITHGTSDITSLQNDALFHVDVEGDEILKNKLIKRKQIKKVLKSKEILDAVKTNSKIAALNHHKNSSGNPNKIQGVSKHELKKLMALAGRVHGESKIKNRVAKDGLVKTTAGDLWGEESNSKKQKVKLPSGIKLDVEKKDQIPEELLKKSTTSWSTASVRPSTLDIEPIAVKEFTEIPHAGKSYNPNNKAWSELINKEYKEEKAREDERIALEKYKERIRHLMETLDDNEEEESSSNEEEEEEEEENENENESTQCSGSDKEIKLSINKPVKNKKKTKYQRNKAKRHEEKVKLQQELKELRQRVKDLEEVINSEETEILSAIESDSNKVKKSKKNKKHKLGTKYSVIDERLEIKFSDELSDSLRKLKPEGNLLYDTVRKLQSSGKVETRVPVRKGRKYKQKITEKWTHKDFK
Kind of test: affinity purification with mass spectrometry + co-sedimentation; pre-60S particles (ribonucleoprotein with 7S pre-rRNA) tandem affinity purified via TAPF-Nop53 from yeast, incubated with ATP only (mock), 10-40% glycerol gradient in 100 mM NaCl, 50 mM Tris pH 7.5, 3 mM MgCl2, 0.01% NP-40; fractions by SDS-PAGE and Coomassie, western blot (Rpl3, Cic1, Nop7) and mass spectrometry.

Protein sequences, listed by entry. Tags and fused reporters are not part of them.
UniProt P14126: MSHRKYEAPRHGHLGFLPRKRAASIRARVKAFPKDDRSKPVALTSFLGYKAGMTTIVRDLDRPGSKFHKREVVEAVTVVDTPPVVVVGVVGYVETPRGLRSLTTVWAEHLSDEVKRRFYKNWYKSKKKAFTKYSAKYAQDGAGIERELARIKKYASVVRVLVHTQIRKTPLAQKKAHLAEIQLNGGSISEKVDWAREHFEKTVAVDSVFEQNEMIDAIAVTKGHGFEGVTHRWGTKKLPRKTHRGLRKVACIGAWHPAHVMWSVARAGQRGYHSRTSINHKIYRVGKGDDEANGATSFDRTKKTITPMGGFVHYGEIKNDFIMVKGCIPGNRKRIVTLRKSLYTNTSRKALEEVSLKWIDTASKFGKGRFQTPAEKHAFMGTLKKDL

Test [2] deals with T1, TAPF-Nop53 (S. cerevisiae). Described as above. This is another data set of the same source.
The target of test [3] is T2, Rrp6-FTpA (S. cerevisiae) (UniProt Q12149).
T2 sequence: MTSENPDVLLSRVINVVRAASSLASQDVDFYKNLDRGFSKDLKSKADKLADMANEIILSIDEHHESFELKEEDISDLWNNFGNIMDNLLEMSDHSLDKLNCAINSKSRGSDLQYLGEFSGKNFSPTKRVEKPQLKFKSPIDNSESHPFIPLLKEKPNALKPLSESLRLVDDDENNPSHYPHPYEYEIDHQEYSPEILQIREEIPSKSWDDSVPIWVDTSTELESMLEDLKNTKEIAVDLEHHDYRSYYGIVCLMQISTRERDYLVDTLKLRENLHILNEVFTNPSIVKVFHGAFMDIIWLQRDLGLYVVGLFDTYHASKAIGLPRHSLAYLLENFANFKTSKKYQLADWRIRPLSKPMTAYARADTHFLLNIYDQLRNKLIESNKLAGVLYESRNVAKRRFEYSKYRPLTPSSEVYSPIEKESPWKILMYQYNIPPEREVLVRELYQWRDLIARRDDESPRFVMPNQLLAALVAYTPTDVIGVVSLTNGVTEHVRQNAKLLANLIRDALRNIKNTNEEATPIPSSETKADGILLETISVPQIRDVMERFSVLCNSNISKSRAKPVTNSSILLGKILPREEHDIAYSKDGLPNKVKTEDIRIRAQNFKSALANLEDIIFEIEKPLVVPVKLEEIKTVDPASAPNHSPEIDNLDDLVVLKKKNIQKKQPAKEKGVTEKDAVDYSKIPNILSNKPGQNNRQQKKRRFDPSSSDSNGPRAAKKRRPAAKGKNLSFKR
Description: affinity purification with mass spectrometry; tandem affinity purification of Rrp6-FTpA from yeast lysate (IgG beads, TEV elution at 16 °C, Flag beads, Flag peptide elution); 100 mM NaCl, 50 mM Tris pH 7.5, 1.5 mM MgCl2, 5% glycerol, NP-40; eluate by SDS-PAGE and Coomassie, bands identified by mass spectrometry.

Test [4] deals with T3, Rrp6-FTpA (S. cerevisiae), Q12149.
T3 chain: T2 sequence
The description is as above. To be noted: remark: other sources report otherwise.

Where two headings read alike, the source gives them in different places. No constants are given. Whether binding was seen depends on the method and setting. Binding seen in cells or lysates may run through a third protein. These calls come from enrichment with a bait or labelling near it, and not all partners need be listed.

In the case of Rpl3 (from UniProt P14126 1-387), the binding result in test [1] is given as “binds”.

B1: Cic1/Nsa3 (protein, UniProt P38779 1-376)
chain: MAKKSNSKKSTPVSTPSKEKKKVIEKKSSTAIPRERVIKAVNELIKFTSKPQDENNEEGNNGKKNLLEDDEEELKKDLQLIVVNNKSFTGTSKSFKLKLLNVKHSFYKPWKEASATAVKDFKVLLILKDSDIKKVSEDDLFDQLDSEGIKVDEIICGKDLKTVYKAYEARNAFISQFSLILADDSIVTSLPKLMGGKAYNKVETTPISIRTHANKEFSLTTLTNNIKKVYMNQLPVKLPRGTTLNVHLGNLEWLRPEEFVDNVELISEQLIKAYQIRSIFIKTNRSPVLPLYYNQDVLDELEAKKDKIEETHEDDMVTIDGVQVHLSTFNKGLMEIANPSELGSIFSKQINNAKKRSSSELEKESSESEAVKKAKS
Turning to B1, in test [2], the binding result is “binds”.

B2: Rrp44 (enzyme, UniProt Q08162 1-1001)
chain: MSVPAIAPRRKRLADGLSVTQKVFVRSRNGGATKIVREHYLRSDIPCLSRSCTKCPQIVVPDAQNELPKFILSDSPLELSAPIGKHYVVLDTNVVLQAIDLLENPNCFFDVIVPQIVLDEVRNKSYPVYTRLRTLCRDSDDHKRFIVFHNEFSEHTFVERLPNETINDRNDRAIRKTCQWYSEHLKPYDINVVLVTNDRLNREAATKEVESNIITKSLVQYIELLPNADDIRDSIPQMDSFDKDLERDTFSDFTFPEYYSTARVMGGLKNGVLYQGNIQISEYNFLEGSVSLPRFSKPVLIVGQKNLNRAFNGDQVIVELLPQSEWKAPSSIVLDSEHFDVNDNPDIEAGDDDDNNESSSNTTVISDKQRRLLAKDAMIAQRSKKIQPTAKVVYIQRRSWRQYVGQLAPSSVDPQSSSTQNVFVILMDKCLPKVRIRTRRAAELLDKRIVISIDSWPTTHKYPLGHFVRDLGTIESAQAETEALLLEHDVEYRPFSKKVLECLPAEGHDWKAPTKLDDPEAVSKDPLLTKRKDLRDKLICSIDPPGCVDIDDALHAKKLPNGNWEVGVHIADVTHFVKPGTALDAEGAARGTSVYLVDKRIDMLPMLLGTDLCSLKPYVDRFAFSVIWELDDSANIVNVNFMKSVIRSREAFSYEQAQLRIDDKTQNDELTMGMRALLKLSVKLKQKRLEAGALNLASPEVKVHMDSETSDPNEVEIKKLLATNSLVEEFMLLANISVARKIYDAFPQTAMLRRHAAPPSTNFEILNEMLNTRKNMSISLESSKALADSLDRCVDPEDPYFNTLVRIMSTRCMMAAQYFYSGAYSYPDFRHYGLAVDIYTHFTSPIRRYCDVVAHRQLAGAIGYEPLSLTHRDKNKMDMICRNINRKHRNAQFAGRASIEYYVGQVMRNNESTETGYVIKVFNNGIVVLVPKFGVEGLIRLDNLTEDPNSAAFDEVEYKLTFVPTNSDKPRDVYVFDKVEVQVRSVMDPITSKRKAELLLK
B2: the binding result in test [3] was “binds”.

B3: Mtr4 helicase, P47047 1-1073 (enzyme)
chain: MDSTDLFDVFEETPVELPTDSNGEKNADTNVGDTPDHTQDKKHGLEEEKEEHEENNSENKKIKSNKSKTEDKNKKVVVPVLADSFEQEASREVDASKGLTNSETLQVEQDGKVRLSHQVRHQVALPPNYDYTPIAEHKRVNEARTYPFTLDPFQDTAISCIDRGESVLVSAHTSAGKTVVAEYAIAQSLKNKQRVIYTSPIKALSNQKYRELLAEFGDVGLMTGDITINPDAGCLVMTTEILRSMLYRGSEVMREVAWVIFDEVHYMRDKERGVVWEETIILLPDKVRYVFLSATIPNAMEFAEWICKIHSQPCHIVYTNFRPTPLQHYLFPAHGDGIYLVVDEKSTFREENFQKAMASISNQIGDDPNSTDSRGKKGQTYKGGSAKGDAKGDIYKIVKMIWKKKYNPVIVFSFSKRDCEELALKMSKLDFNSDDEKEALTKIFNNAIALLPETDRELPQIKHILPLLRRGIGIHHSGLLPILKEVIEILFQEGFLKVLFATETFSIGLNMPAKTVVFTSVRKWDGQQFRWVSGGEYIQMSGRAGRRGLDDRGIVIMMIDEKMEPQVAKGMVKGQADRLDSAFHLGYNMILNLMRVEGISPEFMLEHSFFQFQNVISVPVMEKKLAELKKDFDGIEVEDEENVKEYHEIEQAIKGYREDVRQVVTHPANALSFLQPGRLVEISVNGKDNYGWGAVVDFAKRINKRNPSAVYTDHESYIVNVVVNTMYIDSPVNLLKPFNPTLPEGIRPAEEGEKSICAVIPITLDSIKSIGNLRLYMPKDIRASGQKETVGKSLREVNRRFPDGIPVLDPVKNMKIEDEDFLKLMKKIDVLNTKLSSNPLTNSMRLEELYGKYSRKHDLHEDMKQLKRKISESQAVIQLDDLRRRKRVLRRLGFCTPNDIIELKGRVACEISSGDELLLTELIFNGNFNELKPEQAAALLSCFAFQERCKEAPRLKPELAEPLKAMREIAAKIAKIMKDSKIEVVEKDYVESFRHELMEVVYEWCRGATFTQICKMTDVYEGSLIRMFKRLEELVKELVDVANTIGNSSLKEKMEAVLKLIHRDIVSAGSLYL
Regarding B3, in test [4], the binding entry is “binds”.

B4: Rlp7 (protein, UniProt P40693 1-322)
chain: MSSTQDSKAQTLNSNPEILLRKRRNADRTRIERQELAKKKREEQIKKKRSNKNKFVRAESIVAKTLATSREKERIKRVSILEDKKAKNETQHIASGKDFILKITEKANGAEENSVDLEETEEEEDDGLIREKTTYDGKPALLFIVRVRGPLAVNIPNKAFKILSLLRLVETNTGVFVKLTKNVYPLLKVIAPYVVIGKPSLSSIRSLIQKRGRIIYKGENEAEPHEIVLNDNNIVEEQLGDHGIICVEDIIHEIATMGESFSVCNFFLQPFKLNREVSGFGSLNRLRKIKQREAESRTRQFSNAATAPVIEVDIDSLLAKLN
As to B4, the binding entry in test [2] is “binds”.

B5: Nog1 (protein, UniProt Q02892 1-647)
chain: MQLSWKDIPTVAPANDLLDIVLNRTQRKTPTVIRPGFKITRIRAFYMRKVKYTGEGFVEKFEDILKGFPNINDVHPFHRDLMDTLYEKNHYKISLAAISRAKSLVEQVARDYVRLLKFGQSLFQCKQLKRAALGRMATIVKKLRDPLAYLEQVRQHIGRLPSIDPNTRTLLICGYPNVGKSSFLRCITKSDVDVQPYAFTTKSLYVGHFDYKYLRFQAIDTPGILDRPTEEMNNIEMQSIYAIAHLRSCVLYFMDLSEQCGFTIEAQVKLFHSIKPLFANKSVMVVINKTDIIRPEDLDEERAQLLESVKEVPGVEIMTSSCQLEENVMEVRNKACEKLLASRIENKLKSQSRINNVLNKIHVAQPQARDDVKRTPFIPESVKNLKKYDPEDPNRRKLARDIEAENGGAGVFNVNLKDKYLLEDDEWKNDIMPEILDGKNVYDFLDPEIAAKLQALEEEEEKLENEGFYNSDDEEEIYDGFEASEVDDIKEKAAWIRNRQKTMIAEARNRKSLKNKAIMPRSKLTKSFGKMEEHMSTLGHDMSALQDKQNRAARKNRYVERGSDVVFGDQDALTASTENGVKLRQTDRLLDGVADGSMRSKADRMAKMERRERNRHAKQGESDRHNAVSLSKHLFSGKRGVGKTDFR
Consider B5, for which the binding result in test [2] was “binds”.

B6: Mpp6 (protein, UniProt P53725 1-186)
chain: MSANNGVTGKLSSRVMNMKFMKFGKTDDEESSNSNTPSNINSDVEPIEQKGKLFGLDDSAWDLNSYKDDLKKISGKEKKKVKRVVYKKRPNLIISNVGYSELRKPEGVISGRKTFGDNSDDSGSRKRKFDEGEQNEDEKRDAKDKEFTGSQDDGEDEYDLDKLFKDSIKKKKTNHNGKNKNRNSKK
Consider B6, for which the binding result in test [3] is listed as “binds”.

B7: Nop15 (protein, UniProt P53927 1-220)
chain: MVKSTSKTSTKETVTKQPTEEKPIQEKEELALETSSSSSDEEDEKDEDEIEGLAASDDEQSGTHKIKRLNPKKQANEKKSKDKKTLEEYSGIIYVSRLPHGFHEKELSKYFAQFGDLKEVRLARNKKTGNSRHYGFLEFVNKEDAMIAQESMNNYLLMGHLLQVRVLPKGAKIEKLYKYKKRVLVEKGITKPVKQLKDNMKQKHEERIKKLAKSGIEFKW
Regarding B7, the binding result in test [2] was “binds”.
